No constants are given. Whether binding was seen depends on the method and setting. A result given as binding can be weak or reduced; the word gives no strength.
Target: GST-VAMP7 cytoplasmic domain (UniProt P70280)
Experiment: pull-down + SEC; SNARE complex reconstitution: purified syntaxin7, syntaxin8, Vti1b and GSTVAMP7 mixed about 4:4:4:1, 16 hr, 4°C, 20 mM HEPES pH 7.4, 500 mM NaCl, 5 mM DTT; complexes isolated on glutathione-Sepharose, then Superdex S200; both purified

By UniProt entry, the sequences of proteins in these tests, tags left out. Where a name states a change or a piece, a line headed by the entry shows the natural chain unless it says otherwise. Residues count along the entry.
UniProt P70280, residues 2-188: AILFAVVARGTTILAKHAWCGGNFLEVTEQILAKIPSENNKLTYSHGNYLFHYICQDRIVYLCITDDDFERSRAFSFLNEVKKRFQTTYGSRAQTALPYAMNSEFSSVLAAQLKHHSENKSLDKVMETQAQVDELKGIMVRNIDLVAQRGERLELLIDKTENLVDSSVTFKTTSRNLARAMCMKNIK
UniProt O70439: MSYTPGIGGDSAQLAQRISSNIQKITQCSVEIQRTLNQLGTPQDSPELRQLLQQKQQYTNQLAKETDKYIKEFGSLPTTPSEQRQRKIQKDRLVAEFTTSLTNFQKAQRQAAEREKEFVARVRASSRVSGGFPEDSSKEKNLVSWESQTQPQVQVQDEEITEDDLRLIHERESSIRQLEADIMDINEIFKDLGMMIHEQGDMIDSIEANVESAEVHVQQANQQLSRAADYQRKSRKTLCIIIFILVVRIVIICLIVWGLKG
UniProt O88983: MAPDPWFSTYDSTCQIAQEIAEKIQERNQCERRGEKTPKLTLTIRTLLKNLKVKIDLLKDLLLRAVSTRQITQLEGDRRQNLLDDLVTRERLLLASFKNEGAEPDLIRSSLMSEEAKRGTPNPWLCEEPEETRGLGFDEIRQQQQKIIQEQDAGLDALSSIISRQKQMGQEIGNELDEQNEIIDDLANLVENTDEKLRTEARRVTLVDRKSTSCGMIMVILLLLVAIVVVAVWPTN

| Substance | binding |
| --- | --- |
| Syntaxin7 (from UniProt O70439) | binds |
| Syntaxin8 (from UniProt O88983) | binds |

— article PMC3549491, “Structural Basis of the Intracellular Sorting of the SNARE VAMP7 by the AP3 Adaptor Complex” (Developmental Cell, 2012)
